{
  "sequences": {"note": "Chains of the proteins cited; added tags and fusions are not shown. Residues count along the entry.", "UniProt Q15118, residues 29-436": "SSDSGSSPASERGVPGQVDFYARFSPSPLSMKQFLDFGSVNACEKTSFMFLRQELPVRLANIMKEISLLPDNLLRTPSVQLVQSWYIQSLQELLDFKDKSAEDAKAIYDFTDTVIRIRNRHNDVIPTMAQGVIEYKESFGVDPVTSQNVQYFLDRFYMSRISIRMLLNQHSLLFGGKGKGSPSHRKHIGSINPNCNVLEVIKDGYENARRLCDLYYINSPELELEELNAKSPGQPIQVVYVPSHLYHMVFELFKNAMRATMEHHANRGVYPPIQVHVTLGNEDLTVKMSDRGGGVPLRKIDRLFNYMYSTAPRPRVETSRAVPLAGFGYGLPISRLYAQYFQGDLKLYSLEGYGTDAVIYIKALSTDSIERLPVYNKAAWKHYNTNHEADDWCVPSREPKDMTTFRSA"},
  "source": "paper PMC11379802",
  "molecular_target": "T1, STAM-binding protein (STAMBP) (human (endogenous in PANC-1, BxPC-3, SW1990)) (UniProt O95630)",
  "T1 sequence": "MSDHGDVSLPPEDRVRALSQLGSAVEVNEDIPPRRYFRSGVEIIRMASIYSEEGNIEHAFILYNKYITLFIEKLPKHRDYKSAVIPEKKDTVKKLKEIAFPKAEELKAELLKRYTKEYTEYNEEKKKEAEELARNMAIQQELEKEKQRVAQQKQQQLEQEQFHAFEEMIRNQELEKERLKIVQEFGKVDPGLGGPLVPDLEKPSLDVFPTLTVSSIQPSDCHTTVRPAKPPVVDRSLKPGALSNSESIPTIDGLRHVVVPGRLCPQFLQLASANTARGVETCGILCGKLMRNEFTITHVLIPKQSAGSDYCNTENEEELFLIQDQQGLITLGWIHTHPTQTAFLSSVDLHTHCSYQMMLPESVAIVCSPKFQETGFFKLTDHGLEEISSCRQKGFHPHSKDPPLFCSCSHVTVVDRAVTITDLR",
  "test": "co-IP; endogenous proteins in pancreatic cancer cell lysates; lysates incubated with IgG or the specified primary antibody at 4 °C overnight, protein A/G magnetic beads; immunoprecipitates blotted",
  "note": "Results are given in words; binding and its absence hold for the method and conditions named. Binding seen in cells or lysates may run through a third protein. Tags and fused reporters may be left off the sequences shown.",
  "data": [
    {"substance": "PDK1 (from UniProt Q15118 29-436) (enzyme)", "values": [
      {"measurement": "binding", "value": "no binding"}
    ]}
  ]
}
